Positions count from the first letter of the chain named. These are yes or no findings as the source states them, for the method shown. Some entries that bind do so weakly or less than the wild type.

Chains of the proteins cited; added tags and fusions are not shown. Lines headed by an entry give the natural chain unless they say otherwise; changes in a name come on top. Residues count along the entry.
UniProt P28908: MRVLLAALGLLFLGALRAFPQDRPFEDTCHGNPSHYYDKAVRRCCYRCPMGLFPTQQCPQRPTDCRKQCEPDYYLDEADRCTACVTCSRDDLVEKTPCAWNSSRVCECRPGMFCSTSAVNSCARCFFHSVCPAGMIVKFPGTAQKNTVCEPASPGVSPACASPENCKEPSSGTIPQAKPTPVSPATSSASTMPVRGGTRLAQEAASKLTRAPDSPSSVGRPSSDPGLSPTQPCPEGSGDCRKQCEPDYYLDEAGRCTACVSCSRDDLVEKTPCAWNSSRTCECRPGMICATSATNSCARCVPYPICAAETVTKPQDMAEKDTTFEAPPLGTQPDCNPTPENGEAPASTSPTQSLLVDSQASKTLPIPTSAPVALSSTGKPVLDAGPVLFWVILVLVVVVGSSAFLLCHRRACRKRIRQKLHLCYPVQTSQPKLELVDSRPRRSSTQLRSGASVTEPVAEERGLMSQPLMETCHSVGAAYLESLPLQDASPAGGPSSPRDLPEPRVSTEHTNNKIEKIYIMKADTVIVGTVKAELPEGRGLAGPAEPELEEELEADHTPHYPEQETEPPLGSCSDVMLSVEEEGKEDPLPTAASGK
CD30 on CHO-CD30重组细胞株: residues 19-595 of P28908
CD30 Protein, Human, Recombinant (Fc Tag): residues 19-379 of P28908

The target of test [1] is CD30 on CHO-CD30重组细胞株 (UniProt P28908). The test is described as follows: flow cytometry on CHO-CD30 cells (discussion). For orientation: Flow cytometry measures light scatter and fluorescence of single cells or particles in a stream.
Test [2] shares this target. The test is described as follows: flow cytometry, chimeric antibody 293F supernatant on CHO-CD30 cells.
Test [3] has as its target CD30 Protein, Human, Recombinant (Fc Tag) (human) (UniProt P28908). The test is described as follows: SPR (BiaCore T200), CD30-Fc immobilised on CM5 chip, antibody as analyte. A general note: SPR reads the build-up and loss of mass on a sensor chip optically.
Test [4] addresses CD30 on CHO-CD30重组细胞株 (UniProt P28908). The test is described as follows: flow cytometry, humanized antibody 293F supernatant on CHO-CD30 cells.

B1: 7-H11-E4-F9嵌合抗体 (antibody, V domains shown)
VH: EVQLQQSGAELVRPGASVKLSCKASGYSFTSYWMNWVKQRPGQGLEWIGMIHPSDSETRLNQKFKDKATLTVDKSSSTAYMQLSSPTSEDSAVYYCASPMDYYYAMDYWGQGTSVTVSS
VL: DIVLTQSPASLAVSLGQRATISCRASESVDSYGNSFMHWYQQKPGQPPKLLIYRASNLESGIPARFSGSGSRTDFTLTINPVEADDVATYYCQQSNEDPTWTFGGGTKLEIK
B1: the binding entry with CD30 on CHO-CD30重组细胞株 [1] and with CD30 on CHO-CD30重组细胞株 [2] was “binds” throughout.

B2: 7-B8-G10-D10嵌合抗体 (antibody, V domains shown)
VH: EVMLVESGGGLVQPGGSLKLSCATSGFTFSDYYMYWVRQTPEKRLEWVAYISNGGGYTFYSDTVKGRFTISRDNTKNTLSLQMSRLKSEDTAMYYCARQGILDGGAYWGQGTLLTVSA
VL: DIVMTQSPATLSVTPGDSVSLSCRASQNVTNNLHWYQQKSHESPRLLIKYASQSISGIPSRFSGSGSGTDFTLSINNVETEDFGMYFCQQTNSWPLTFGAGTKLELK
With B2, the binding result in the test with CD30 on CHO-CD30重组细胞株 [1] and with CD30 on CHO-CD30重组细胞株 [2] was “binds” throughout.

B3: 7-A2-E8-E6嵌合抗体 (antibody, V domains shown)
VH: EVQLQQSGAELVRPGSSVKISCKASGYAFSSYWMNWVKQRPGQGLEWIGQIYPGDGDTNYNGKFKGKATLTADKSSSTAYMQLSSLTSEDSAVYFCARRINGNFAMDYWGQGTSVTVSS
VL: EIVLTQSPASLAVSLGQRATISCRASESLEYYGTSLMLWYQQKPGQPPKLLIYSASNVESGVPARFSGSGSGTDFSLNIHPVEEDDIAMYFCQQRRKVPSTFGGGTKLEIK
As to B3, the binding result (with CD30 on CHO-CD30重组细胞株 [1]; with CD30 on CHO-CD30重组细胞株 [2]; in test [3]) was “binds” in each case.

B4: 人源化抗体 7-A2-E8-E6-hVH-0917 + 7-A2-E8-E6-hVL-N1 (antibody, V domains shown)
VH: EVQLVQSGAEVKKPGSSVKVSCKASGYAFSSYWMNWVKQAPGQGLEWIGQIYPGDGDTNYNGKFKGRVTLTADKSSSTAYMELSSLRSEDTAVYFCARRINGNFAMDYWGQGTLVTVSS
VL: EIVLTQSPDSLAVSLGERATINCRASESLEYYGTSLMLWYQQKPGQPPKLLIYSASNVESGVPDRFSGSGSGTDFSLTISSLEPEDIAMYFCQQRRKVPSTFGGGTKVEIK
In the case of B4, the binding entry with CD30 on CHO-CD30重组细胞株 [1] and in the test with CD30 on CHO-CD30重组细胞株 [4] was “binds” throughout.

B5: 人源化抗体 7-A2-E8-E6-hVH + 7-A2-E8-E6-hVL-0917 (antibody, V domains shown)
VH: B4 VH with K38R, I48M, K65Q, S76T
VL: B4 VL with D9A, S10T, A12S, V13L, L15P, I21L, N22S, V62I, D64A, I87F
Consider B5, for which the binding entry with CD30 on CHO-CD30重组细胞株 [1] and in the test with CD30 on CHO-CD30重组细胞株 [4] was “binds” in each case.

B6: 人源化抗体7-A2-E8-E6-hVH-0917+hVL-0917 (antibody, V domains shown)
VH: B4 VH
VL: B4 VL with D9A, S10T, A12S, V13L, L15P, I21L, N22S, V62I, D64A, I87F
B6: the binding result (with CD30 on CHO-CD30重组细胞株 [1]; with CD30 on CHO-CD30重组细胞株 [4]; in test [3]) was “binds” each time.

B7: 人源化抗体 7-A2-E8-E6-hVH-0917 + 7-A2-E8-E6-hVL (antibody, V domains shown)
VH: B4 VH
VL: EIVLTQSPATLSLSPGERATLSCRASESLEYYGTSLMLWYQQKPGQPPKLLIYSASNVETGIPARFSGSGSGTDFTLTISSLEPEDFAVYFCQQRRKVPSTFGGGTKVEIK
B7: the binding result with CD30 on CHO-CD30重组细胞株 [1] and with CD30 on CHO-CD30重组细胞株 [4] was “binds” in each case.

B8: 人源化抗体 7-A2-E8-E6-hVH + 7-A2-E8-E6-hVL-N1 (antibody, V domains shown)
VH: B4 VH with K38R, I48M, K65Q, S76T
VL: B4 VL
As to B8, the binding result in the test with CD30 on CHO-CD30重组细胞株 [1] and in the test with CD30 on CHO-CD30重组细胞株 [4] was “binds” each time.

B9: 人源化抗体7-A2-E8-E6-hVH+hVL (antibody, V domains shown)
VH: B4 VH with K38R, I48M, K65Q, S76T
VL: B7 VL
Consider B9, for which the binding result (with CD30 on CHO-CD30重组细胞株 [1]; in the test with CD30 on CHO-CD30重组细胞株 [4]; in test [3]) was “binds” in each case.

B10: 8-F2-H8-D6嵌合抗体 (antibody, V domains shown)
VH: EVTLKVSGPGISQPSQTLSLTCSFSGFSLSTYGMGVSWIRQPSGKGLEWLAHIYWDDDKRYNPSLKSRLTISKDTSSNQVFLKITSVDTADTATYYCARRAELRDFYFDYWGQGTTLTVSS
VL: DIVMTQSPKFMSTSVGDRVSVTCKASQNVNTNVAWYQQKPGQSPKALIYSASYRYSGVPDRFTGSGSGTDLTLTIINIQSEDLAEYFCQQYNTYPLTFGVGTKLELK
Regarding B10, the binding result with CD30 on CHO-CD30重组细胞株 [1] and with CD30 on CHO-CD30重组细胞株 [2] was “binds” throughout.

The values are drawn from patent publication CN116410313A.
